Results are given in words; binding and its absence hold for the method and conditions named. Some binding calls cover weakened binding; strength is not graded here.
Experiments:
P2 peptide (…) = assay: method not described
fibrinogen [1] = target: fibrinogen (UniProt P02671); assay: ELISA, plates coated with fibrinogen
[2] = target: T1, fibrin(ogen) in the spinal cord of EAE mice (mouse) (UniProt E9PV24); assay: double immunofluorescence with a sheep anti-fibrin(ogen) antibody, EAE spinal cords
T1 sequence (looked up) 1: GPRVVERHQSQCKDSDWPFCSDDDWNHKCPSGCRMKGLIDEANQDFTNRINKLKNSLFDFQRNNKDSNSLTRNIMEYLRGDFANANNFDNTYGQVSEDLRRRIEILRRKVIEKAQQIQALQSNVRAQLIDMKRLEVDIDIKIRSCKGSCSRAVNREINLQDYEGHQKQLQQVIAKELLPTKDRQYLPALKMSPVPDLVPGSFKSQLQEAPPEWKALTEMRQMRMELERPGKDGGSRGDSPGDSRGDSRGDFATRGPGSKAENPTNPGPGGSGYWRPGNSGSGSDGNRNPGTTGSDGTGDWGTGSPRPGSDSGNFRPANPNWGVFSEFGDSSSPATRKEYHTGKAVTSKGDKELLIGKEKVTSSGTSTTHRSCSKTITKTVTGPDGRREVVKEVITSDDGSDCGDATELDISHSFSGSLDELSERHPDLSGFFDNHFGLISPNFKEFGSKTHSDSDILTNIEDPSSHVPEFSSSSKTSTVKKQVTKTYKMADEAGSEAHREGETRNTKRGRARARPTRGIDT
T1 sequence (looked up) 2: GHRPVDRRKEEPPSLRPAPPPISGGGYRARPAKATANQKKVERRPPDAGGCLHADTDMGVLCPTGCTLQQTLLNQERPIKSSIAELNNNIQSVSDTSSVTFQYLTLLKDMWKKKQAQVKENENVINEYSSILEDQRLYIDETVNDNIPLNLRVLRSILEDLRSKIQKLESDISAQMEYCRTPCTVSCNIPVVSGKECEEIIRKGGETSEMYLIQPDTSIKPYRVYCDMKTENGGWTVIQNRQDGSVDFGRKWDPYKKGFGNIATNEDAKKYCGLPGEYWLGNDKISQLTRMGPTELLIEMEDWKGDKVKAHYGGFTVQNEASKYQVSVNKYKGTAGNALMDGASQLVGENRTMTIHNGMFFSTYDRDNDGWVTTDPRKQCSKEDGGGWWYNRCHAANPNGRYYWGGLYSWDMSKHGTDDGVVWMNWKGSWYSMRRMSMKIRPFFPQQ
T1 sequence (looked up) 3: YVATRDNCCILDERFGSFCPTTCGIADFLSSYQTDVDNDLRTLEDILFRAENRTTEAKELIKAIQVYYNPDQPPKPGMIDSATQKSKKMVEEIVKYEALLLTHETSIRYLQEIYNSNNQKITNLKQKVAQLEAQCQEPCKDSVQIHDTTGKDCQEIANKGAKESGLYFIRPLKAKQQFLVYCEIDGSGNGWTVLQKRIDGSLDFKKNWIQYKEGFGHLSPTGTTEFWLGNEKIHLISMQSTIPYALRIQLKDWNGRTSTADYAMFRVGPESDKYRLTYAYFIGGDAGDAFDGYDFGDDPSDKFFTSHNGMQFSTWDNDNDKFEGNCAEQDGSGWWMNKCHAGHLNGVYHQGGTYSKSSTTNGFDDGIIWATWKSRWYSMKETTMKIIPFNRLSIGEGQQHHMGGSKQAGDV

Chains of the proteins cited; added tags and fusions are not shown. Lines headed by an entry give the natural chain unless they say otherwise; changes in a name come on top.
UniProt P02671: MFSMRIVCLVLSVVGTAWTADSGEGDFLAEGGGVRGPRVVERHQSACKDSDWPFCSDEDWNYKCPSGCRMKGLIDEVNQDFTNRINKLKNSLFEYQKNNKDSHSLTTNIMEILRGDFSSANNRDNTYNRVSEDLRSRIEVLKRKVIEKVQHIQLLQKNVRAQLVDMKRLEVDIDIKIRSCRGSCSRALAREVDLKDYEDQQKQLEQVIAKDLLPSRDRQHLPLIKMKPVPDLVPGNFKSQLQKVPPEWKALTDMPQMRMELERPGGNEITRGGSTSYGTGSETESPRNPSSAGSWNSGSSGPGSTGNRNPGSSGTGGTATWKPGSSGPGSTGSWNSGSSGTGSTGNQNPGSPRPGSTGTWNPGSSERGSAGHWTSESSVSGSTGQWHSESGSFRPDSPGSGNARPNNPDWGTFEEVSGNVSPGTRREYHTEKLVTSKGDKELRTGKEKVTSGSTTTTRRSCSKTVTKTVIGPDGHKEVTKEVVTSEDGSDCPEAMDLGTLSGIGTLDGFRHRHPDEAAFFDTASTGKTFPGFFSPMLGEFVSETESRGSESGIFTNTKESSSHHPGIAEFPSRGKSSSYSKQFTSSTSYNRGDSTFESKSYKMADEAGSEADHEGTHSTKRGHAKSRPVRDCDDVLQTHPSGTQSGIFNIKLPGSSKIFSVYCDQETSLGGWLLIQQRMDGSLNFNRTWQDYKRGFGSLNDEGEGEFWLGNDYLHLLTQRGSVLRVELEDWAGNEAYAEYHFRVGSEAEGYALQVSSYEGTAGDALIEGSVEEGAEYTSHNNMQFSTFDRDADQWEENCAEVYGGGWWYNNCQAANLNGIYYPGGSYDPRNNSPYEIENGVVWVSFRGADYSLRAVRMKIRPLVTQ

[3] = target: T1, fibrin(ogen) in the spinal cord of EAE mice (mouse); assay: double immunofluorescence with a sheep anti-fibrin(ogen) antibody, spinal cord sections
[4] = target: T1, fibrin(ogen) in the spinal cord of EAE mice (mouse); assay: immunohistochemistry of MOG35-55 EAE mouse spinal cord sections, Antibody G 0.4 mg/ml
fibrin [5] = target: fibrin (UniProt P02671); assay: ELISA, plates coated with fibrin
[6] = target: T1, fibrin(ogen) in the spinal cord of EAE mice (mouse); assay: biotinylated Antibody G injected i.p. in MOG35-55 EAE mice; sections stained with streptavidin and sheep anti-fibrinogen antibody
fibrin [7] = target: fibrin (UniProt P02671); assay: told with the fibrin polymerization assay
fibrinogen [8] = target: fibrinogen (UniProt P02671); assay: told with the fibrin polymerization assay

Measured: binding

B1: Antibody G (45-C1C3) (antibody, V domains shown)
VH: EVQLVESGGGAVQPGRSLRLSCAASGVSFSNIGMHWVRQAPGKGLEWVALISSDGRHTHYADSVKGRFTISRDNSENTLYLQINGLRADDTAVYYCAKGLDTRARYMGKFYTFDYWGQGTLVTVSS
VL: DIQLTQSPSSLSASVGDRVTITCRASQNIGVNLNWYQQRPGKGPKLLVSSTFSLQSGVPSRFSASGAGTNFTLTISSLQPEDYVTYYCQQSYSSPFTFGPGTKVDIK
notes: also called mAb G; Ab G
binds: all assays above

Source: patent US20260146103A1 (J DAVID GLADSTONE INSTITUTES A TESTAMENTARY TRUST …, published 2026)
